Assay results published in paper PMC10008703.

Chains of the proteins cited; added tags and fusions are not shown.
UniProt Q16186: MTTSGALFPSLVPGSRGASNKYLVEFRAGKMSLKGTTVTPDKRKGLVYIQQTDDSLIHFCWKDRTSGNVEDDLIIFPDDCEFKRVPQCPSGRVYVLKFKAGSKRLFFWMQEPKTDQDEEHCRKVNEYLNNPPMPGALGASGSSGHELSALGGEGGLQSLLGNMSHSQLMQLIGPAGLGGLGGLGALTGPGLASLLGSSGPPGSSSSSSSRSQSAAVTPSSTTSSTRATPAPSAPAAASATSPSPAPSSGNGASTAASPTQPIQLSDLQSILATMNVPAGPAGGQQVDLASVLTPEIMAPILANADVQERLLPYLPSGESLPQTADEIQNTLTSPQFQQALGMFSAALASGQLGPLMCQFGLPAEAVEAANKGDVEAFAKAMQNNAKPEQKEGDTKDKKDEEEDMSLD
UniProt Q9UIK4: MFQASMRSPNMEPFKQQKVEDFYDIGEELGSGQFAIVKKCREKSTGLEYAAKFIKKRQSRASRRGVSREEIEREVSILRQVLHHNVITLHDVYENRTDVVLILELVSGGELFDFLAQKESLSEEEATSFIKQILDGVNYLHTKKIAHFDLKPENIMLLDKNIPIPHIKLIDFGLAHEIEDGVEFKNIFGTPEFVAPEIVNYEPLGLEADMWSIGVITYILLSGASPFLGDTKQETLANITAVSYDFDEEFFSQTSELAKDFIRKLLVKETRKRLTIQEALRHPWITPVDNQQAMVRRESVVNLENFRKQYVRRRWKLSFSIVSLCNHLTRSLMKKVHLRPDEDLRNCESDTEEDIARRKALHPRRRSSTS
UniProt P01100: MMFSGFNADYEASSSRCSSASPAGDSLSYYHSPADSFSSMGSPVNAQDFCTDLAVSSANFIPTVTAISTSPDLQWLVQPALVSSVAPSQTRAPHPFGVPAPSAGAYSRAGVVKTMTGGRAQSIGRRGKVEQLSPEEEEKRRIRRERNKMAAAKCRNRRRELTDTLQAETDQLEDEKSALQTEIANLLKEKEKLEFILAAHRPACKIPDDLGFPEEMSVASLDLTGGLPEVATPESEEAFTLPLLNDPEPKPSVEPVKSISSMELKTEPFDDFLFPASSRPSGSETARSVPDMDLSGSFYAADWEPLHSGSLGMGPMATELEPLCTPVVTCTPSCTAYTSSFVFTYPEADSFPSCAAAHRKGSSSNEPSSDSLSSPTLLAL
UniProt P15104: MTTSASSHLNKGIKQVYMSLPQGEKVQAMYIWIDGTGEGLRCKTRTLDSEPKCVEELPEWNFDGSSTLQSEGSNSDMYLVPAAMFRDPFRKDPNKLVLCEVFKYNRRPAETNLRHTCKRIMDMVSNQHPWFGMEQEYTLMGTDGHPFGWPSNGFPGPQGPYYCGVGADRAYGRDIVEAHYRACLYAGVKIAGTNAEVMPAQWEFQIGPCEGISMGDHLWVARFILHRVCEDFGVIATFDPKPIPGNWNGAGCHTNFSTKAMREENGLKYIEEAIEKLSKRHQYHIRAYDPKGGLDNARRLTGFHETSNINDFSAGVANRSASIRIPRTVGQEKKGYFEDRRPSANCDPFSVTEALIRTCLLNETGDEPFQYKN
UniProt P78559: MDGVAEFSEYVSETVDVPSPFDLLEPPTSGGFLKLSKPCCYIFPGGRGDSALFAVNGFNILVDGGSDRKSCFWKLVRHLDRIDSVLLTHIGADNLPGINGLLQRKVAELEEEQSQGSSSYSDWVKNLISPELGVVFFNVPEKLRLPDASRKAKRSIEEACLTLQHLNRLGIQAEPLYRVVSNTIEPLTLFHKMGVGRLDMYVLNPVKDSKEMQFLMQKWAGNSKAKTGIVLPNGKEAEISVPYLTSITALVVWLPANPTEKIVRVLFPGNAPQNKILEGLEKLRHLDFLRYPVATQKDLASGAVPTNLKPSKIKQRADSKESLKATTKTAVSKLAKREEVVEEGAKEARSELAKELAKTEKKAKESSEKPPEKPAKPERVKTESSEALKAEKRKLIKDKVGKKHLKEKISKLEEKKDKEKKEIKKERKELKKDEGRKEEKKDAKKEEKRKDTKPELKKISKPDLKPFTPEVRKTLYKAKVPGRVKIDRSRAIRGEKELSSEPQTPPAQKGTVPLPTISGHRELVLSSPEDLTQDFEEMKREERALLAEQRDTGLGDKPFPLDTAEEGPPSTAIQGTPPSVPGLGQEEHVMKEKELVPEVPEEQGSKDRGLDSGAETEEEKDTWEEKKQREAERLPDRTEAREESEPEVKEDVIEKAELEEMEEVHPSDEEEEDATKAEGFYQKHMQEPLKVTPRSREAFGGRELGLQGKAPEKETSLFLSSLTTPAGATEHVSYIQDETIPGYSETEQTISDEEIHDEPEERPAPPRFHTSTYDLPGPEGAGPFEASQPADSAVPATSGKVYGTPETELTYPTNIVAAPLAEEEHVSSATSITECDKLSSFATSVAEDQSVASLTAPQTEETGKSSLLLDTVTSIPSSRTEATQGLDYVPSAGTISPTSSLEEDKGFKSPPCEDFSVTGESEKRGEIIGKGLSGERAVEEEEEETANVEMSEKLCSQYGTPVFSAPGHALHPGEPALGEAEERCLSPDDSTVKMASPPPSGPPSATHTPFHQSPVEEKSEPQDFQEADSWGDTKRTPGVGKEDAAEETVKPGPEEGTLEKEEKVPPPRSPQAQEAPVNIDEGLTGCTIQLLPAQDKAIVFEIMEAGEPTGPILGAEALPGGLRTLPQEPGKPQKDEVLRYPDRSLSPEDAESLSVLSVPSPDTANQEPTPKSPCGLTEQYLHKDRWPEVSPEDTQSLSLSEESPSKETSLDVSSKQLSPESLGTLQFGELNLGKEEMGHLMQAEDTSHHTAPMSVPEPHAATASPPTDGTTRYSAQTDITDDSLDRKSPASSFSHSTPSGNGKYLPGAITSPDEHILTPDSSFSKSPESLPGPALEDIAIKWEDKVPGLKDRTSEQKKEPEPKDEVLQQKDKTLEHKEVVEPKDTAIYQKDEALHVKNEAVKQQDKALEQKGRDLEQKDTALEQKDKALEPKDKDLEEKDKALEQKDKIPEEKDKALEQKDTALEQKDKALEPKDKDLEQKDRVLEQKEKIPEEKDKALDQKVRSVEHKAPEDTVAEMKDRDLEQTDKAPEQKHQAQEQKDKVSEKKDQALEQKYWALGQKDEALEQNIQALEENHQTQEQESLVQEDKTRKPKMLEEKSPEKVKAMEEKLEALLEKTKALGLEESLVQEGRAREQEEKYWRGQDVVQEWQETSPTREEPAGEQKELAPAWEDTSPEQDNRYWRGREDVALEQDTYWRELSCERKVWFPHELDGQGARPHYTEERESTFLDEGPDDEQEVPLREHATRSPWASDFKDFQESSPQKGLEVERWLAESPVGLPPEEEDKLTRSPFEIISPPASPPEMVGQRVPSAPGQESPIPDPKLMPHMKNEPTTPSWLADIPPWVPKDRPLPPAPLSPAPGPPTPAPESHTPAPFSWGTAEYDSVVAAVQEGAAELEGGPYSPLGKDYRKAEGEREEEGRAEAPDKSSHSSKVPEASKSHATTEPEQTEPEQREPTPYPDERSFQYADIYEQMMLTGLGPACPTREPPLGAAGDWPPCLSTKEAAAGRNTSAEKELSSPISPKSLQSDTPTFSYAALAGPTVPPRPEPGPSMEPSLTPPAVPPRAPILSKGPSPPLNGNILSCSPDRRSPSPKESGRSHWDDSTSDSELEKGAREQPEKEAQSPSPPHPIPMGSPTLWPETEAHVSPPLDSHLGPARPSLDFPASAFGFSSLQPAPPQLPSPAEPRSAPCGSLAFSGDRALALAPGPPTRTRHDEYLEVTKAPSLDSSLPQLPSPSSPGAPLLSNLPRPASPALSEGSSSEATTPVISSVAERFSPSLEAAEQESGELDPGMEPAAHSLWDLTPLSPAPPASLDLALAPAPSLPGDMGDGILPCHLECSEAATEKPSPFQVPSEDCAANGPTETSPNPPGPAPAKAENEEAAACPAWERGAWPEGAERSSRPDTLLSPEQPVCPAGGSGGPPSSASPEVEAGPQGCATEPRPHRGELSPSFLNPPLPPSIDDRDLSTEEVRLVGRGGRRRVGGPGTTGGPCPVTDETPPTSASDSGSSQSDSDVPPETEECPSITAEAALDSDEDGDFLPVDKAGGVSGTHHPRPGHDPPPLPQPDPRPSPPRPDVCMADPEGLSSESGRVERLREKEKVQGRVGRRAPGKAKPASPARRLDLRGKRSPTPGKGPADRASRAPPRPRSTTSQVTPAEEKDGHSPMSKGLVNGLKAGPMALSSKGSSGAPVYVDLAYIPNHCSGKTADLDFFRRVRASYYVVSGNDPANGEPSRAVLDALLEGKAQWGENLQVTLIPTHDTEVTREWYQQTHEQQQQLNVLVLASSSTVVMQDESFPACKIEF
UniProt O75116: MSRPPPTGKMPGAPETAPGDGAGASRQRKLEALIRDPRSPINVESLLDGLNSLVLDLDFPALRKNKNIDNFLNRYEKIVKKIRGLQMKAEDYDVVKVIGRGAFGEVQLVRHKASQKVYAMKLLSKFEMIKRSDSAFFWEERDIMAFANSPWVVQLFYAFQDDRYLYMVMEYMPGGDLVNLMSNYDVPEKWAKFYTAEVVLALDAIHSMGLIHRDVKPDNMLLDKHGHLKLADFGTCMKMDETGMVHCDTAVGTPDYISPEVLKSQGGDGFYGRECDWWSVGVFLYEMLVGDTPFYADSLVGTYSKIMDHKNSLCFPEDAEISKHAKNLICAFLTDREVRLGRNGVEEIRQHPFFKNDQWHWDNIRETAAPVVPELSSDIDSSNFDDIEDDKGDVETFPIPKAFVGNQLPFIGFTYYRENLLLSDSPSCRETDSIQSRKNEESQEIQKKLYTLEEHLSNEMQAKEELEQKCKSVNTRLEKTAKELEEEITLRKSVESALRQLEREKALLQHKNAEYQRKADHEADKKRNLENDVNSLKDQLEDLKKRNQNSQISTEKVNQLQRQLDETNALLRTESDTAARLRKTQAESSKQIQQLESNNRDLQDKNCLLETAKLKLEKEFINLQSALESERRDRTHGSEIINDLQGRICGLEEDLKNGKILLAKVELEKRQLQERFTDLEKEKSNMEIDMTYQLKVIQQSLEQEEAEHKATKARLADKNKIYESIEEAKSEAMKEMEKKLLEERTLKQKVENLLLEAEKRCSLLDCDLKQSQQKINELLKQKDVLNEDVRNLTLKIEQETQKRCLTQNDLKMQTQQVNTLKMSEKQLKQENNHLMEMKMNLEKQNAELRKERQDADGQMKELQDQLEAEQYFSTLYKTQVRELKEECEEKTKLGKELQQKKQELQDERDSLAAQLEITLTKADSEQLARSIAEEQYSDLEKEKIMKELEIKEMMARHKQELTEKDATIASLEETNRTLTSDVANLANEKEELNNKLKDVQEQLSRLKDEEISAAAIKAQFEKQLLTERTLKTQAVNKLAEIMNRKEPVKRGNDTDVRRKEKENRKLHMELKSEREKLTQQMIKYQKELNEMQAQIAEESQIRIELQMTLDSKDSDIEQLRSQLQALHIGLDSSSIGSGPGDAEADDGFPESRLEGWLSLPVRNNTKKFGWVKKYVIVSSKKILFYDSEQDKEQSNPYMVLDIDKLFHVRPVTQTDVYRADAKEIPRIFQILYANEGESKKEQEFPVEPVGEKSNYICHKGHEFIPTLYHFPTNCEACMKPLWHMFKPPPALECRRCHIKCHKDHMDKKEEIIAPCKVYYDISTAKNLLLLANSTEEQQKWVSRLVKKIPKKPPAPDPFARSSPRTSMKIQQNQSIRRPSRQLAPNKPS
UniProt P31350: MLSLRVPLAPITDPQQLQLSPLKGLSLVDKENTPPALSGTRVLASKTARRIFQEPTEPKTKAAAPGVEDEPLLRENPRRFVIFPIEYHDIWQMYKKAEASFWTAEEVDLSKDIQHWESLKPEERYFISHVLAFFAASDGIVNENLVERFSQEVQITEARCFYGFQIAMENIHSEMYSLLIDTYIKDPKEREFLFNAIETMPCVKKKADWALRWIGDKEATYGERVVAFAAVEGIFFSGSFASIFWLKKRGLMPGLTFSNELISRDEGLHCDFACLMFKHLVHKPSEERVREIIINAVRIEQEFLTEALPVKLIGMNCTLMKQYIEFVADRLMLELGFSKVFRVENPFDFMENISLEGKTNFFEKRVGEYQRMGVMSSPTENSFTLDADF

Molecular target: T1, RalA (human (endogenous in K562)) (UniProt P11233)
T1 sequence: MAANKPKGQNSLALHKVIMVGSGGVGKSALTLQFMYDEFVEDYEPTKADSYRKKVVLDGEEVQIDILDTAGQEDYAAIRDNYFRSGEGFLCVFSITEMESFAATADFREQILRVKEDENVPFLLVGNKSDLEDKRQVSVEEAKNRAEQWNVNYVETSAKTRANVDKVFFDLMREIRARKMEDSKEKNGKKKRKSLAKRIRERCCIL
Assay: affinity purification with mass spectrometry; K562 lysate (137 mM NaCl, 20 mM Tris, 2 mM CaCl2, 1% Triton X-100, 2 mM PMSF) probed overnight with RalA antibodies, protein A/G beads, washed thrice; eluted proteins identified by LC-MS (2D nano-HPLC-MS/MS)

Row | Molecule | binding
1 | ADRM1 (from UniProt Q16186 1-407) | binds
2 | DAPK2 (from UniProt Q9UIK4 1-370) | binds
3 | FAT1 (from UniProt Q14517 22-4588) | binds
4 | FOS (from UniProt P01100 1-380) | binds
5 | GLUL (from UniProt P15104 1-373) | binds
6 | MAP1A (from UniProt P78559 1-2803) | binds
7 | PTPRC (from UniProt P08575 26-1306) | binds
8 | RABGAP1L (from UniProt Q5R372 1-815) | binds
9 | ROCK2 (from UniProt O75116 1-1388) | binds
10 | RRM2 (from UniProt P31350 1-389) | binds
11 | SMCHD1 (from UniProt A6NHR9 1-2005) | binds
12 | ADAR (protein, UniProt P55265 1-1226) MNPRQGYSLSGYYTHPFQGYEHRQLRYQQPGPGSSPSSFLLKQIEFLKGQLPEAPVIGKQTPSLPPSLPGLRPRFPVLLASSTRGRQVDIRGVPRGVHLRSQGLQRGFQHPSPRGRSLPQRGVDCLSSHFQELSIYQDQEQRILKFLEELGEGKATTAHDLSGKLGTPKKEINRVLYSLAKKGKLQKEAGTPPLWKIAVSTQAWNQHSGVVRPDGHSQGAPNSDPSLEPEDRNSTSVSEDLLEPFIAVSAQAWNQHSGVVRPDSHSQGSPNSDPGLEPEDSNSTSALEDPLEFLDMAEIKEKICDYLFNVSDSSALNLAKNIGLTKARDINAVLIDMERQGDVYRQGTTPPIWHLTDKKRERMQIKRNTNSVPETAPAAIPETKRNAEFLTCNIPTSNASNNMVTTEKVENGQEPVIKLENRQEARPEPARLKPPVHYNGPSKAGYVDFENGQWATDDIPDDLNSIRAAPGEFRAIMEMPSFYSHGLPRCSPYKKLTECQLKNPISGLLEYAQFASQTCEFNMIEQSGPPHEPRFKFQVVINGREFPPAEAGSKKVAKQDAAMKAMTILLEEAKAKDSGKSEESSHYSTEKESEKTAESQTPTPSATSFFSGKSPVTTLLECMHKLGNSCEFRLLSKEGPAHEPKFQYCVAVGAQTFPSVSAPSKKVAKQMAAEEAMKALHGEATNSMASDNQPEGMISESLDNLESMMPNKVRKIGELVRYLNTNPVGGLLEYARSHGFAAEFKLVDQSGPPHEPKFVYQAKVGGRWFPAVCAHSKKQGKQEAADAALRVLIGENEKAERMGFTEVTPVTGASLRRTMLLLSRSPEAQPKTLPLTGSTFHDQIAMLSHRCFNTLTNSFQPSLLGRKILAAIIMKKDSEDMGVVVSLGTGNRCVKGDSLSLKGETVNDCHAEIISRRGFIRFLYSELMKYNSQTAKDSIFEPAKGGEKLQIKKTVSFHLYISTAPCGDGALFDKSCSDRAMESTESRHYPVFENPKQGKLRTKVENGEGTIPVESSDIVPTWDGIRLGERLRTMSCSDKILRWNVLGLQGALLTHFLQPIYLKSVTLGYLFSQGHLTRAICCRVTRDGSAFEDGLRHPFIVNHPKVGRVSIYDSKRQSGKTKETSVNWCLADGYDLEILDGTRGTVDGPRNELSRVSKKNIFLLFKKLCSFRYRRDLLRLSYGEAKKAARDYETAKNYFKKGLKDMGYGNWISKPQEEKNFYLCPV | binds
13 | PYCR2 (protein, UniProt Q96C36 1-320) MSVGFIGAGQLAYALARGFTAAGILSAHKIIASSPEMNLPTVSALRKMGVNLTRSNKETVKHSDVLFLAVKPHIIPFILDEIGADVQARHIVVSCAAGVTISSVEKKLMAFQPAPKVIRCMTNTPVVVQEGATVYATGTHALVEDGQLLEQLMSSVGFCTEVEEDLIDAVTGLSGSGPAYAFMALDALADGGVKMGLPRRLAIQLGAQALLGAAKMLLDSEQHPCQLKDNVCSPGGATIHALHFLESGGFRSLLINAVEASCIRTRELQSMADQEKISPAALKKTLLDRVKLESPTVSTLTPSSPGKLLTRSLALGGKKD | binds
14 | PITPNB (protein, UniProt P48739 1-271) MVLIKEFRVVLPCSVQEYQVGQLYSVAEASKNETGGGEGIEVLKNEPYEKDGEKGQYTHKIYHLKSKVPAFVRMIAPEGSLVFHEKAWNAYPYCRTIVTNEYMKDDFFIKIETWHKPDLGTLENVHGLDPNTWKTVEIVHIDIADRSQVEPADYKADEDPALFQSVKTKRGPLGPNWKKELANSPDCPQMCAYKLVTIKFKWWGLQSKVENFIQKQEKRIFTNFHRQLFCWIDKWIDLTMEDIRRMEDETQKELETMRKRGSVRGTSAADV | binds

Results are given in words; binding and its absence hold for the method and conditions named. Binding seen in cells or lysates may run through a third protein. A yes stands for co-enrichment or nearness to the bait. Other partners may have been found.
